No constants are given. Whether binding was seen depends on the method and setting. In cells and extracts the contact can be indirect. Binding can be weak; no strength is given.
Experiments:
Test in all cases: co-IP; HA-tagged E1s and FLAG-tagged E2s expressed in vivo; the E2s pulled down the E1s; details in the Supporting Information
[1] = target: FLAG-tagged SlUBC33 (tomato (Solanum lycopersicum)) (UniProt K4BN65)
[2] = target: FLAG-tagged SlUBC32 (tomato (Solanum lycopersicum)) (UniProt K4DHV2)
[3] = target: FLAG-tagged SlUBC34 (tomato (Solanum lycopersicum)) (UniProt K4C741)

binding [1]	binding [2]	binding [3]	Substance
binds	binds	binds	HA-tagged SlUBA1 (Solanum lycopersicum ubiquitin-activating enzyme 1) (from UniProt A0A3Q7GMH0)
binds	binds	binds	HA-tagged SlUBA2 (Solanum lycopersicum ubiquitin-activating enzyme 2) (from UniProt A0A3Q7I083)
